Among all 360,000 compounds or so, about 7,500 (2.1%) were called active. This list was built around the results that the source calls inconclusive (neither active nor inactive); the mix of calls is not that of the screen. The call rests on the fitted dose curve; in most records, active means well fitted inhibition curve with a large enough effect; inconclusive means small, poorly fitted or top-dose-only effect, or effect the other way; inactive means flat fitted curve, though single readings scatter. Potencies of inconclusive entries are doubtful fits and often do not repeat.
Experiment: Nrf2 qHTS screen for inhibitors; further: nearly all actives have a fitted effect of over 60% in size
Conditions: A549 ARE-Fluc reporter, luciferase luminescence, 18-24 h; activity change, negative = inhibition: at 46 µM (top of the series)
How it was run: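 Quantitative HTS in A549 cells stably bearing an antioxidant response element-firefly luciferase construct. Inhibition of Nrf2-driven transcription was scored by luminescence after 18-24 h of compound exposure at 37 °C.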
On the % scale 0 is the no-effect control and ±100 the full control effect; potency means the concentration at half of the fitted maximal effect.

SMILES | Potency | activity change, negative = inhibition
O=C(c1ccc2c(c1)N(Cc1ccc(F)cc1)C(=O)c1ccccc1S2(=O)=O)N1CCN(c2ccccn2)CC1 | inconclusive: 0.58 µM [activator, full curve, poor fit] | –
O=C(O)c1cccc(-n2c(/C=C/c3ccc([N+](=O)[O-])cc3)nc3ccccc3c2=O)c1 | inconclusive: 25.9 µM [falling, partial curve, poor fit] | –
Cc1c(O)ccc(/C=N/Nc2nc(-c3cccnc3)nc3ccccc23)c1O | inactive | –
Cc1ccccc1-c1n[nH]c(=S)n1/N=C/c1ccc(-c2ccccc2Br)o1 | inconclusive: 16.4 µM [activator, partial curve] | –
Cc1cccc(C)c1N(C(=O)c1ccco1)C(C(=O)NC1CCCC1)c1ccncc1 (stereo not given) | inconclusive: 16.4 µM [activator, partial curve] | –
CCc1cccc(NS(=O)(=O)c2ccc3c(c2)N(C)CCO3)c1 | inconclusive: 18.4 µM [falling, single point] | –
CC1=C(C(=O)Nc2ccccc2)C(c2ccncc2)C(C#N)=C(SCC(=O)Nc2ccccc2)N1 (stereo not given) | inconclusive: 20.6 µM [falling, single point] | –
O=C(Nc1cc(Cl)ccc1-n1cncn1)c1ccc([N+](=O)[O-])o1 | – | inactive: 9.85%
COC(=O)c1sc2cccc(F)c2c1S(=O)(=O)NCc1ccc(Cl)cc1 | – | inactive: -19.2%
CN(Cc1cccnc1)C(=O)Cc1ccc(NS(=O)(=O)c2cccc(C(F)(F)F)c2)cc1 | inconclusive: 29.1 µM [falling, single point] | –
O=C(N/N=C/c1cc([N+](=O)[O-])ccc1N1CCNCC1)c1ccc([N+](=O)[O-])cc1 | inconclusive: 20.6 µM [activator, single point] | –
Cc1nn2c3ccccc3n(CCN3CCCCC3)c2nc1=O | – | inactive: 10.4%
COc1ccccc1-c1nnc2sc(COc3ccc(Cl)cc3Cl)nn12 | inconclusive: 20.6 µM [falling, single point] | –
CC(=O)c1ccc(N2CCN(C(=O)C3CCN(S(=O)(=O)c4cccs4)CC3)CC2)cc1 | inconclusive: 11.6 µM [falling, partial curve] | –
Cc1cccc2nc(Cn3c(=O)n(CCC(=O)NCc4ccco4)c(=O)c4ccccc43)cc(=O)n12 | inconclusive: 29.1 µM [falling, single point] | –
Cc1ccc(S(=O)(=O)c2nnn3c2nc(N2CCC(C(N)=O)CC2)c2ccccc23)cc1 | inconclusive: 32.6 µM [falling, single point] | –
CC(C)CNS(=O)(=O)c1ccc(CCC(=O)NC2CCCC2)cc1 | – | inactive: 17%
O=C(CC(Nc1ccccc1Cl)C(=O)O)c1ccccc1 (stereo not given) | inconclusive: 9.2 µM [activator, partial curve, poor fit] | –
COC(=O)C(NC(=O)c1ccco1)(Nc1cc(C)ccn1)C(F)(F)F (stereo not given) | – | inactive: 7.29%
CCN1CCN(c2ccc(NC(=O)c3ccc4c(c3)OCCO4)cc2C)CC1 | inconclusive: 9.2 µM [activator, partial curve] | –

SMILES | Potency | activity change, negative = inhibition
CS(=O)(=O)N(CC(=O)NC1CCCCC1)Cc1ccc(F)cc1 | – | inactive: 4.07%
Cn1c(=O)c2ccccc2n2c(CCl)nnc12 | inconclusive: 10.3 µM [falling, partial curve, poor fit] | –
CC1=CC(C)(C)N(S(=O)(=O)c2ccc(C)cc2)c2ccccc21 | inconclusive: 8.2 µM [activator, partial curve, poor fit] | –
Cc1ccc(S(=O)(=O)N2CC(=O)Nc3ccccc32)c(C)c1NS(C)(=O)=O | inconclusive: 7.31 µM [falling, partial curve, poor fit] | –
C/C(=N\Nc1nc(N2CCOCC2)nc(N2CCOCC2)n1)c1cccc([N+](=O)[O-])c1 | inconclusive: 20.6 µM [activator, single point] | –
O=C(CCN1C(=O)c2ccccc2C1=O)N1CCN(C(=O)c2ccccc2)CC1 | inconclusive: 2.31 µM [falling, partial curve, poor fit] | –
Fc1ccc(SCCc2ccccn2)cc1 | inconclusive: 23.1 µM [activator, single point] | –
CCOc1ccc(S(=O)(=O)NCCC(=O)NCC2(N3CCCCC3)CCCCC2)cc1 | inconclusive: 0.184 µM [activator, partial curve, poor fit] | –
Cc1ccc(NC(=O)CCn2c(=O)c3cccn3c3ccccc32)c(C)c1 | – | inactive: -22.6%
CCc1ccc(NC(=S)NC(=O)CC(C)C)cc1 | inconclusive: 13 µM [activator, partial curve] | –
C=CCOC(=O)Cn1cnc2c(sc3nc(C)cc(C)c32)c1=O | inconclusive: 29.1 µM [activator, single point] | –
Cc1ccc(C(=O)N/N=C\c2ccncc2)s1 | inconclusive: 16.4 µM [falling, partial curve, poor fit] | –
CCc1nn(CC(=O)N2CCN(c3ccc(Cl)cc3)CC2)c(=O)c2cc3occc3n12 | inconclusive: 25.9 µM [falling, single point] | –
CC(=O)c1ccc(N2CCN(C(=O)c3cc4ccc5cccnc5c4[nH]3)CC2)cc1 | inconclusive: 29.1 µM [falling, single point] | –
S=C(NCCCN1CCOCC1)N1CCN(c2cccc(Cl)c2)CC1 | inconclusive: 13 µM [falling, partial curve, poor fit] | –
Nc1cccc(-c2cn3cc(C(F)(F)F)cc(Cl)c3n2)c1 | inconclusive: 1.46 µM [activator, partial curve, poor fit] | –
Cc1ccc(C2CC(C(F)(F)F)n3nc(C(=O)NCc4c(C)nn(C)c4C)c(Cl)c3N2)cc1 (stereo not given) | active: 11.6 µM | –
COc1ccc(C(=O)Nc2ccccc2-c2nc(-c3ccc(OC)cc3)no2)cc1 | inconclusive: 23.1 µM [activator, partial curve, poor fit] | –
Nc1c(C(=O)Nc2ccc3c(c2)OCCO3)nnn1Cc1ccc(Br)cc1 | inconclusive: 3.26 µM [activator, partial curve] | –
O=c1ccc(S(=O)(=O)N2CCCC2)cn1Cc1ccc(Cl)cc1Cl | inconclusive: 14.6 µM [falling, single point] | –
